The results in this text go back to paper PMC11961634.

Sequences of proteins named here, by UniProt entry; tags and fusion partners are left off.
UniProt P42224: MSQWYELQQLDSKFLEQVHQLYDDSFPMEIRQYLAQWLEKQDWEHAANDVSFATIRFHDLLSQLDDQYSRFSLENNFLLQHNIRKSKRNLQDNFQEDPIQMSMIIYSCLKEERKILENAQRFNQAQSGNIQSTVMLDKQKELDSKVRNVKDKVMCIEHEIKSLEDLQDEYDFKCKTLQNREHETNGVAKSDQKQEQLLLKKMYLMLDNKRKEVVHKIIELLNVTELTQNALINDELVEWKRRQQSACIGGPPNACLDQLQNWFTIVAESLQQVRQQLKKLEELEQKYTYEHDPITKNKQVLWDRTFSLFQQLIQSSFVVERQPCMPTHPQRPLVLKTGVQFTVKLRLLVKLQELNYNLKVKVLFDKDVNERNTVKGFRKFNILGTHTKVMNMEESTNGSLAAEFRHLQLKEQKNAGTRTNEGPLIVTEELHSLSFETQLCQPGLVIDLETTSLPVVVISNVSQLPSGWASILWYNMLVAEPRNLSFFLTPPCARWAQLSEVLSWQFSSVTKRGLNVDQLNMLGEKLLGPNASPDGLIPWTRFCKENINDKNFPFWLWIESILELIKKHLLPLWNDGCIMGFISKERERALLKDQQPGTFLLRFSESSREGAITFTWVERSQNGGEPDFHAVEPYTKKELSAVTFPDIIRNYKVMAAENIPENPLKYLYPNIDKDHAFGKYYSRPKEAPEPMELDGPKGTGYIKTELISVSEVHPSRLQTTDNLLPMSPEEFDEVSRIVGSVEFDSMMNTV
UniProt Q13557: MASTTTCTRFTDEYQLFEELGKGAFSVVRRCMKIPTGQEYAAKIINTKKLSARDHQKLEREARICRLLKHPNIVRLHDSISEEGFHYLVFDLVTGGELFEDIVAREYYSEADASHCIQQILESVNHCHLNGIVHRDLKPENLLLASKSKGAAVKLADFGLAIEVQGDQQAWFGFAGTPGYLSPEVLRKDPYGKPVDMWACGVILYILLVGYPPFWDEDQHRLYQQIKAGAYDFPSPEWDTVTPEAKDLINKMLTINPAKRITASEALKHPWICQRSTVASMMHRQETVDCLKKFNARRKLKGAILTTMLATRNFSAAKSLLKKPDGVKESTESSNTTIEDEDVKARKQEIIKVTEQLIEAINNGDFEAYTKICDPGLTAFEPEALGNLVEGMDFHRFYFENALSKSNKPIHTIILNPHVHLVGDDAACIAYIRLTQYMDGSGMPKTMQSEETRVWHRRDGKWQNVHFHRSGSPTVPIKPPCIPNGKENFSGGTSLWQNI

These are yes or no findings as the source states them, for the method shown. Some binding calls cover weakened binding; strength is not graded here.

This assay addresses STAT1-GST Fusion Protein (UniProt P42224). Put plainly: pull-down; 5 ug STAT1-GST fusion protein and CAMK2D-His protein mixed with pre-washed GST-labeled protein magnetic beads (GST protein in the control group), GST-pull-down buffer, rotated overnight at 4 °C, washed three times, western blot; both purified. On the technique in general: Immunoblotting shows a protein as a band on a membrane.

On to “Recombinant CAMK2D-His protein (from UniProt Q13557 1-499) (enzyme)”, for which the binding result was “binds”.
